Results published in article PMC11180190.
These are yes or no findings as the source states them, for the method shown. Binding seen in cells or lysates may run through a third protein. Some entries that bind do so weakly or less than the wild type.

Amino acid sequences for entries named in this document (tags omitted).
UniProt P19532: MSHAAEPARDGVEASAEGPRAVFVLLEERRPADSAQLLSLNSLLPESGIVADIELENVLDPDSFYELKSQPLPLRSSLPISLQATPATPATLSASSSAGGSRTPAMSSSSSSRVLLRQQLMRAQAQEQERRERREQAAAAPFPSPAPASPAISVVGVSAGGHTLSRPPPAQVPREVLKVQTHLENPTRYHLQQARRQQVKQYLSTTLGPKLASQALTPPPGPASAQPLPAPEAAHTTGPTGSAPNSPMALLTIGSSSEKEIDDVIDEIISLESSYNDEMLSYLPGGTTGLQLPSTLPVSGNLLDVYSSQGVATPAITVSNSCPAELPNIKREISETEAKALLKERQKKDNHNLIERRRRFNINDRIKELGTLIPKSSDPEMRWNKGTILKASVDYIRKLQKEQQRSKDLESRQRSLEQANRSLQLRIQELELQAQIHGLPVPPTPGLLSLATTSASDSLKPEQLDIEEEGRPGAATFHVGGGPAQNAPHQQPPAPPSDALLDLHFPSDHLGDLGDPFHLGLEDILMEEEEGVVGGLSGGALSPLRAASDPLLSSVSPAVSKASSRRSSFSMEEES
UniProt P49840: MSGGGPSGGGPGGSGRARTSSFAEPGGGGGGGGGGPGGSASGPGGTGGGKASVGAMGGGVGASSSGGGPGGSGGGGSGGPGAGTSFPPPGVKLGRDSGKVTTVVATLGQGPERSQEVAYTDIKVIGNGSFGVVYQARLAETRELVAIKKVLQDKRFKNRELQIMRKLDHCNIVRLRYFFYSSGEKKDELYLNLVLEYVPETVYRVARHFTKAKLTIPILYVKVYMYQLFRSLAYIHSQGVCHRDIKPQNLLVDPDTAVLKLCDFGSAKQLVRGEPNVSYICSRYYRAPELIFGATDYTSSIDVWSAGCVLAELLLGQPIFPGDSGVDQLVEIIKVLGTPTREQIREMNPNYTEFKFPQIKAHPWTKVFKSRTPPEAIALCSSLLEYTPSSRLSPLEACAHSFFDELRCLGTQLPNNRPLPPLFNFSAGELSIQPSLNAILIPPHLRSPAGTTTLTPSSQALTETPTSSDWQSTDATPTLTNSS
UniProt P49841: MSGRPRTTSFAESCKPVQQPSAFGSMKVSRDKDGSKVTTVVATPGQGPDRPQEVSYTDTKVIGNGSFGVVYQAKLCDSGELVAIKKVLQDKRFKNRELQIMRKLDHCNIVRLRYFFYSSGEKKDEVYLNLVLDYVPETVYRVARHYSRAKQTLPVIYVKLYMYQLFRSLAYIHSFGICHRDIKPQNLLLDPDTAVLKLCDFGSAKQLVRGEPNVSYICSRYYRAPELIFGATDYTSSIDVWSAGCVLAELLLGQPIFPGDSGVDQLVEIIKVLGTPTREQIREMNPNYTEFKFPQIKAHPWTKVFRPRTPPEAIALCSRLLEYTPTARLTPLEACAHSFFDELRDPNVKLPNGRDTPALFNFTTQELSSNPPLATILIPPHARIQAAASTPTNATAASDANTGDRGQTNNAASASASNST

Target: Flag-tagged TFE3 (transcription factor E3), wild type (UniProt P19532)
Assay: co-IP; HEK293T cells transfected with HA-GSK3α/β and Flag-TFE3 plasmids; NP40 lysate diluted to 1 μg/μL; anti-HA or anti-Flag magnetic beads, 4 °C overnight; western blot

| Substance | binding |
| --- | --- |
| HA-tagged GSK3α (glycogen synthase kinase 3α) (from UniProt P49840 1-483) (enzyme) | binds |
| HA-tagged GSK3β (glycogen synthase kinase 3β) (from UniProt P49841 1-420) (enzyme) | binds |
